Assay results: US20200172913A1, “PEPTIDES AND NANOPARTICLES FOR INTRACELLULAR DELIVERY OF VIRUS” (priority 2017, published 2020)
Not every detail of the peptide structures is certain; ends, links or a residue may be inferred. *1 amine or outer side, *2 acyl side, *3 side chain or, on linkers, in order; H or OH if unused. Where a SMILES comes first, the peptide text is derived from it. Cysteamide = C(CS[*:3])N[*:1]

Legend:
HUVEC = experiment: AAV-6-βGal transduction by CPP/AAV complexes, β-Galactosidase activity in cell lysates; assay type: cell-based; conditions: for peptide concentration giving optimal responses: AAV-6-βGal MOI of 300; for increase of the level of beta Galactosidase expression in comparison to free AAV: AAV-6-βGal MOI of 300, 2 days post-infection; for potency relative to pANT (penetratin): AAV-6-βGal, HUVEC
HS 68 and HepG2 cells = experiment: Impact of CPPs (fixed 200 μM) on the titer of AAV-2-GFP necessary for gene expression; assay type: cell-based, human; conditions: 200 μM peptide, 2 days after infection
HepG2 cells [1] = experiment: AAV-6-GFP transduction with CPPs, flow cytometry; assay type: cell-based, human; conditions: 200 μM CPP, AAV-6 MOI of 500, HepG2; 5% in the absence of CPP
Method: (§1) In this example different AAV serotypes including AAV 1, AAV2, AAV5, AAV6, AAV8 and AAV9 were tested against human hepatocytes (HepG2) and human neuronal cells (HCN2) in the presence or in the absence of CPPs including ADGN-103a, ADGN-103b, ADGN-100, ADGN-109, ADGN-106, PEP-1, PEP-2, CADY, and TAT-HA2.
(§2) AAV-1, AAV-2, AAV-5, and AAV-6 viruses encoding green fluorescent protein were obtained from Cell Biolabs Inc and AAV-8 from Vector Biolabs. Stock solutions of virus were obtained at 1χ10^13 GC/ml in PBS/0.01% and diluted 50-fold to 2×10^11 GC/ml before use.
(§3) AAV-1, AAV-2, AAV-5, and AAV6 encoding green fluorescent protein were used at low MOI of 500 (1-2×10^7 PFU) and AAV-8 at MOI of 1000 (2-4×10^7 PFU). HepG2 and HCN2 cells (1 10^6 cells per well) were cultured in a 24 well plate culture dish format. For MOI of 1000, 5 μl of AAV virus diluted solutions were preincubated in PBS with increasing concentration of CPPs ranging from 0.1 to 200 μM for 30 min. For MOI of 500, 2.5 μl of AAV virus diluted solutions were preincubated in PBS with increasing concentration of CPPs ranging from 0.1 to 200 μM for 30 min. 200 μl of AAV or CPP/AAV complex solutions were added to cultured cells (1×10^6 cells per well). Cells are treated with either free AAV or CPP/AAV complexes for 4 h. and then the medium is replaced with fresh medium.
(§4) Viral mediated transgene expression was monitored by flow cytomety 2 days post-infection in HepG2 and Human neuronal HCN2. The percentage of GFP expressing cells were detected by flow cytometry and the increase of AAV infectivity was calculated based on the number of GFP-positive cells. Results are reported in FIGS. 5A-5D, 6A-6D, 7A-7D, 8A-8D, and 9A-9D.

HCN2 cells [2] = experiment: AAV-6-GFP transduction with CPPs, flow cytometry; assay type: cell-based, human
Method: as §1, §2, §3, §4

HepG2 cells [3] = experiment: AAV-2-GFP transduction with CPPs, flow cytometry; assay type: cell-based, human; conditions: 200 μM CPP, AAV-2 MOI of 500, HepG2; 4% in the absence of CPP
Method: as §1, §2, §3, §4

HCN2 cells [4] = experiment: AAV-2-GFP transduction with CPPs, flow cytometry; assay type: cell-based, human; conditions: 200 μM CPP; for increase of AAV-2 efficiency: MOI of 500, HCN2
Method: as §1, §2, §3, §4

293 T cells = experiment: AAV-2/PEP-1 peptide particle stability (serum, heparin), GFP expressing cells by flow cytometry; assay type: cell-based
Method: Stock solutions of peptides were prepared at 2 mg/mL in distilled water or 5% DMSO and sonicated for 10 min in a water bath sonicator then diluted just before use. AAV-2 encoding green fluorescent protein at MOI of 300 was pre-incubated in low salt medium with PEP-1 peptides containing either a specific targeting motif, a PEG or Dopamine moiety at a concentration of 50 μM for 30 min. The AAV-2/peptide particle stability was evaluated in different conditions. Particles were incubated for 1 hour in DMEM medium containing 10, 20 to 50% serum (FSC) or in the presence of heparin (5 and 10 μg). Then AAV alone or PEP-1/AAV complexes were added to cultured 293 T cells in a 24 well plate format. Cells were treated with either free AAV-2 or Peptide/AAV-2 complexes for 4 h, and then the medium was replaced with fresh medium. Viral mediated transgene expression was monitored 2 days post-infection. GFP expressing cells were detected by flow cytometry.

HepG2 cells [5] = experiment: AAV-1-GFP transduction with CPPs, flow cytometry; assay type: cell-based, human; conditions: 200 μM CPP
Method: as §1, §2, §3, §4

HCN2 cells [6] = experiment: AAV-1-GFP transduction with CPPs, flow cytometry; assay type: cell-based, human; conditions: 200 μM CPP; for increase of AAV-1 efficiency: MOI of 500, HCN2
Method: as §1, §2, §3, §4

HepG2 cells [7] = experiment: AAV-5-GFP transduction with CPPs, flow cytometry; assay type: cell-based, human; conditions: 200 μM CPP, AAV-5 MOI of 500, HepG2; 5% in the absence of CPP
Method: as §1, §2, §3, §4

HCN2 cells [8] = experiment: AAV-5-GFP transduction with CPPs, flow cytometry; assay type: cell-based, human; conditions: 200 μM CPP; for increase of AAV-5 efficiency: MOI of 500, HCN2
Method: as §1, §2, §3, §4

[9] = test system: HepG2 and HS68 cell lines; experiment: AAV2-GFP transduction by CPP/AAV complexes at reduced titer, GFP expressing cells by flow cytometry; assay type: cell-based, human; conditions: for increase of the level of GFP-positive cells: 100 μM peptide, both cell lines, vs free AAV; for potency relative to pANT (penetratin): AAV2-GFP, HepG2 and HS68
HepG2 cells [10] = experiment: AAV-8-GFP transduction with CPPs, flow cytometry; assay type: cell-based, human; conditions: 200 μM CPP
Method: as §1, §2, §3, §4

HCN2 cells [11] = experiment: AAV-8-GFP transduction with CPPs, flow cytometry; assay type: cell-based, human; conditions: 200 μM CPP
Method: as §1, §2, §3, §4

| Compound | peptide concentration giving optimal responses (HUVEC) [µM] | increase of the level of beta Galactosidase expression in comparison to free AAV (HUVEC) | potency relative to pANT (penetratin) (HUVEC) [fold] | increase of the level of GFP-positive cells (HS 68 and HepG2 cells) [fold] | increase of AAV-2 efficiency (HCN2 cells [4]) [fold] | increase of AAV-1 efficiency (HCN2 cells [6]) [fold] | increase of AAV-5 efficiency (HCN2 cells [8]) [fold] | increase of the level of GFP-positive cells [9] | potency relative to pANT (penetratin) [9] [fold] | further results |
| --- | --- | --- | --- | --- | --- | --- | --- | --- | --- | --- |
| CC(=O)N[C@@H](CCCCN)C(=O)N[C@@H](CCC(=O)O)C(=O)N[C@H](C(=O)N[C@@H](Cc1c[nH]c2ccccc12)C(=O)N[C@@H](Cc1c[nH]c2ccccc12)C(=O)N[C@@H](CCC(=O)O)C(=O)N[C@H](C(=O)N[C@@H](Cc1c[nH]c2ccccc12)C(=O)N[C@@H](Cc1c[nH]c2ccccc12)C(=O)N[C@H](C(=O)N[C@@H](CCC(=O)O)C(=O)N[C@@H](Cc1c[nH]c2ccccc12)C(=O)N[C@@H](CO)C(=O)N[C@@H](CCC(N)=O)C(=O)N1CCC[C@H]1C(=O)N[C@@H](CCCCN)C(=O)N[C@@H](CCCCN)C(=O)N[C@@H](CCCCN)C(=O)N[C@@H](CCCNC(=N)N)C(=O)N[C@@H](CCCCN)C(=O)N[C@H](C(=O)NCCS)C(C)C)[C@@H](C)O)[C@@H](C)O)[C@@H](C)O [PEP-1] (Ac-KETWWETWWTEWSQPKKKRKV-Cysteamide) | 100 | about 4 fold | 2 | 5 | 21 | 22 | 12 | about 8 fold | 2 | cells expressing GFP (HepG2 cells [1]): 99%; cells expressing GFP (HCN2 cells [2]; 200 μM of CPP, AAV-6 MOI of 500, HCN2, 4% in the absence of CPP): 72%; cells expressing GFP (HepG2 cells [3]): 98%; cells expressing GFP (HCN2 cells [4]; AAV-2 MOI of 500, HCN2, 4% in the absence of CPP): 87%; effect of incubation in the presence of Heparin on the stability (293 T cells; heparin (5 and 10 μg)): only a limited effect; reduction of the level of GFP expressing cells (293 T cells; particles incubated 1 hour in 20% serum, 50 μM peptide, AAV-2 MOI of 300): 60%; reduction of the level of GFP expressing cells (efficacy) (293 T cells; particles incubated 1 hour in 50% serum, 50 μM peptide, AAV-2 MOI of 300): 80%; cells expressing GFP (HepG2 cells [5]; AAV-1 MOI of 500, HepG2, 5% in the absence of CPP): 87%; increase of AAV-1 efficiency (HepG2 cells [5]; MOI of 500, HepG2): 23 fold; cells expressing GFP (HCN2 cells [6]; AAV-1 MOI of 500, HCN2, 5% in the absence of CPP): 82%; cells expressing GFP (HepG2 cells [7]): 67%; cells expressing GFP (HCN2 cells [8]; AAV-5 MOI of 500, HCN2, 5% in the absence of CPP): 52%; cells expressing GFP (HepG2 cells [10]; AAV-8 MOI of 1000, HepG2, 5% in the absence of CPP): 68%; increase of AAV-8 efficiency (HepG2 cells [10]; MOI of 1000, HepG2): 14 fold; cells expressing GFP (HCN2 cells [11]; AAV-8 MOI of 1000, HCN2, 5% in the absence of CPP): 61%; increase of AAV-8 efficiency (HCN2 cells [11]; MOI of 1000, HCN2): 14 fold |
| CC(=O)N[C@@H](CCCCN)C(=O)N[C@@H](CCC(=O)O)C(=O)N[C@H](C(=O)N[C@@H](Cc1c[nH]c2ccccc12)C(=O)N[C@@H](Cc1ccccc1)C(=O)N[C@@H](CCC(=O)O)C(=O)N[C@H](C(=O)N[C@@H](Cc1c[nH]c2ccccc12)C(=O)N[C@@H](Cc1ccccc1)C(=O)N[C@H](C(=O)N[C@@H](CCC(=O)O)C(=O)N[C@@H](Cc1c[nH]c2ccccc12)C(=O)N[C@@H](CO)C(=O)N[C@@H](CCC(N)=O)C(=O)N1CCC[C@H]1C(=O)N[C@@H](CCCCN)C(=O)N[C@@H](CCCCN)C(=O)N[C@@H](CCCCN)C(=O)N[C@@H](CCCNC(=N)N)C(=O)N[C@@H](CCCCN)C(=O)N[C@H](C(=O)NCCS)C(C)C)[C@@H](C)O)[C@@H](C)O)[C@@H](C)O [PEP-2] (Ac-KETWFETWFTEWSQPKKKRKV-Cysteamide) | 100 | about 4 fold | 2 | 5 | 7 | 7 | 4 | about 8 fold | 2 | increase of AAV-6 efficiency (HCN2 cells [2]; 200 μM CPP, MOI of 500, HCN2): 7 fold |
